Assay [1] addresses T1, GST-YdfD (E. coli BL21(DE3)) (UniProt P29010).
T1 sequence: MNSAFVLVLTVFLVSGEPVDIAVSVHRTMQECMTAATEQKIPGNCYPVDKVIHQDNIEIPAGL
Put plainly: pull-down; GST-YdfD or its deletion mutants coexpressed with IspG constructs in E. coli BL21(DE3); lysate supernatant on GST beads; 3 washes; SDS-PAGE and Western blotting. Background: In western blotting, separated proteins are transferred to a membrane and probed.

Assay [2] has as its target T2, GST-YdfD∆N28 (E. coli BL21(DE3)) (UniProt P29010).
T2 sequence: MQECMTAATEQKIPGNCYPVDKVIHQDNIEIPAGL
The description is as above.

In assay [3] the target is T3, GST-YdfD∆C35 (E. coli BL21(DE3)) (UniProt P29010).
T3 sequence: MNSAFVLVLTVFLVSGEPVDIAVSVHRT
The description is as above.

Assay [4] concerns the target T1, GST-YdfD (E. coli BL21(DE3)). Put plainly: pull-down; candidate proteins from the MS screen recombinantly expressed and purified, tested with YdfD in another pull-down (Table 1, Figure S1).
The target in assay [5] is T4, YdfD-CFP (E. coli BL21(DE3)) (UniProt P29010).
T4 sequence: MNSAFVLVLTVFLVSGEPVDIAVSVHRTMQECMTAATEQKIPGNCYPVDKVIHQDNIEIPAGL
Put plainly: FRET or BRET; YdfD-CFP (donor) and IspG-YFP (acceptor) coexpressed in E. coli BL21(DE3), IPTG 8 h at 37 °C, confocal imaging of living cells; also under pH, osmotic and oxidative stress. On the technique in general: BRET reads energy transfer from a luciferase to a nearby fluorophore.

For assay [6], the target named is T5, IspG-His (E. coli BL21(DE3)) (UniProt P62620).
T5 sequence: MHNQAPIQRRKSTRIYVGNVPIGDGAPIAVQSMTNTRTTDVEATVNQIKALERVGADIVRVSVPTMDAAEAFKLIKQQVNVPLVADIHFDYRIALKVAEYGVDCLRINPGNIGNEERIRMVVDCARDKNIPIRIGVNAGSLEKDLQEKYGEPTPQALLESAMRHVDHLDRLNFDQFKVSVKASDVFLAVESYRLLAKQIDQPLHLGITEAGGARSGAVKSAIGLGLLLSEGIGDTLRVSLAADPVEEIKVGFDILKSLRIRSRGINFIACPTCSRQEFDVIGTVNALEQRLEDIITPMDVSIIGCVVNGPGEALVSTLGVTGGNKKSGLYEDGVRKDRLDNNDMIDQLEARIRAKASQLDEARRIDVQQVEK
Description: pull-down; IspG-His as bait on Ni beads, YdfD-HA as prey; SDS-PAGE and Western blotting.

Results are given in words; binding and its absence hold for the method and conditions named. Binding seen in cells or lysates may run through a third protein. Some results given as binding are weak or reduced against the parent protein; the word gives no strength. Tags and fused reporters may be left off the sequences shown.

B1: IspG-His (enzyme, E. coli BL21(DE3), UniProt P62620 1-372, looked up)
chain: MHNQAPIQRRKSTRIYVGNVPIGDGAPIAVQSMTNTRTTDVEATVNQIKALERVGADIVRVSVPTMDAAEAFKLIKQQVNVPLVADIHFDYRIALKVAEYGVDCLRINPGNIGNEERIRMVVDCARDKNIPIRIGVNAGSLEKDLQEKYGEPTPQALLESAMRHVDHLDRLNFDQFKVSVKASDVFLAVESYRLLAKQIDQPLHLGITEAGGARSGAVKSAIGLGLLLSEGIGDTLRVSLAADPVEEIKVGFDILKSLRIRSRGINFIACPTCSRQEFDVIGTVNALEQRLEDIITPMDVSIIGCVVNGPGEALVSTLGVTGGNKKSGLYEDGVRKDRLDNNDMIDQLEARIRAKASQLDEARRIDVQQVEK
notes: ispG amplified from the E. coli BL21(DE3) genome; also called His-tagged ispG; GcpE; source: E. coli BL21(DE3); coexpressed with YdfD constructs, in lysate; and purified (Ni-NTA, Superdex 200)
On to B1, for which the binding result is on record as “binds” in assay [1], “no binding” in assay [2], “binds” in assay [3] and “binds” in assay [4].

B2: IspG-YFP (enzyme, UniProt P62620 1-372)
chain: MHNQAPIQRRKSTRIYVGNVPIGDGAPIAVQSMTNTRTTDVEATVNQIKALERVGADIVRVSVPTMDAAEAFKLIKQQVNVPLVADIHFDYRIALKVAEYGVDCLRINPGNIGNEERIRMVVDCARDKNIPIRIGVNAGSLEKDLQEKYGEPTPQALLESAMRHVDHLDRLNFDQFKVSVKASDVFLAVESYRLLAKQIDQPLHLGITEAGGARSGAVKSAIGLGLLLSEGIGDTLRVSLAADPVEEIKVGFDILKSLRIRSRGINFIACPTCSRQEFDVIGTVNALEQRLEDIITPMDVSIIGCVVNGPGEALVSTLGVTGGNKKSGLYEDGVRKDRLDNNDMIDQLEARIRAKASQLDEARRIDVQQVEK
In the case of B2, the binding result in assay [5] is given as “binds”.

B3: YdfD (MBP tag cleaved) (natural protein, E. coli BL21(DE3), UniProt P29010 1-63, looked up)
chain: MNSAFVLVLTVFLVSGEPVDIAVSVHRTMQECMTAATEQKIPGNCYPVDKVIHQDNIEIPAGL
notes: YdfD, lysis protein of the Qin cryptic prophage, 63 amino acids; ydfD amplified from the E. coli BL21(DE3) genome; No truncation is told for this construct; source: E. coli BL21(DE3), purified as MBP-YdfD (amylose resin), MBP cleaved by PreScission protease; not shown: MBP, N-terminal, cleaved
As to B3, in assay [6], the binding result is “binds”.

B4: IspG 1-279 (domain or fragment, UniProt P62620 1-279)
chain: MHNQAPIQRRKSTRIYVGNVPIGDGAPIAVQSMTNTRTTDVEATVNQIKALERVGADIVRVSVPTMDAAEAFKLIKQQVNVPLVADIHFDYRIALKVAEYGVDCLRINPGNIGNEERIRMVVDCARDKNIPIRIGVNAGSLEKDLQEKYGEPTPQALLESAMRHVDHLDRLNFDQFKVSVKASDVFLAVESYRLLAKQIDQPLHLGITEAGGARSGAVKSAIGLGLLLSEGIGDTLRVSLAADPVEEIKVGFDILKSLRIRSRGINFIACPTCSRQEFD
Take B4: the binding result in assay [3] is reported as “binds”.
